In patent publication US20190374506A1, “COMPOSITIONS AND METHODS FOR TREATING CANCER” (BETH ISREAL DEACONESS MEDICAL CENTER, priority 2016, published 2019):
No constants are given. Whether binding was seen depends on the method and setting. Some entries that bind do so weakly or less than the wild type.

Molecular target: HA-PTEN (human), P60484
Assay: anti-PTEN immunoprecipitation from DU145 cells transfected with HA-PTEN, SDS-PAGE, mass-spectrometric peptide sequencing of the bands (association in the precipitate)
Settings: remark: other sources report otherwise

B1: C-1-tetrahydrofolate synthase (enzyme)
chain: MAPAEILNGKEISAQIRARLKNQVTQLKEQVPGFTPRLAILQVGNRDDSNLYINVKLKAAEEIGIKATHIKLPRTTTESEVMKYITSLNEDSTVHGFLVQLPLDSENSINTEEVINAIAPEKDVDGLTSINAGKLARGDLNDCFIPCTPKGCLELIKETGVPIAGRHAVVVGRSKIVGAPMHDLLLWNNATVTTCHSKTAHLDEEVNKGDILVVATGQPEMVKGEWIKPGAIVIDCGINYVPDDKKPNGRKVVGDVAYDEAKERASFITPVPGGVGPMTVAMLMQSTVESAKRFLEKFKPGKWMIQYNNLNLKTPVPSDIDISRSCKPKPIGKLAREIGLLSEEVELYGETKAKVLLSALERLKHRPDGKYVVVTGITPTPLGEGKSTTTIGLVQALGAHLYQNVFACVRQPSQGPTFGIKGGAAGGGYSQVIPMEEFNLHLTGDIHAITAANNLVAAAIDARIFHELTQTDKALFNRLVPSVNGVRRFSDIQIRRLKRLGIEKTDPTTLTDEEINRFARLDIDPETITWQRVLDTNDRFLRKITIGQAPTEKGHTRTAQFDISVASEIMAVLALTTSLEDMRERLGKMVVASSKKGEPVSAEDLGVSGALTVLMKDAIKPNLMQTLEGTPVFVHAGPFANIAHGNSSIIADRIALKLVGPEGFVVTEAGFGADIGMEKFFNIKCRYSGLCPHVVVLVATVRALKMHGGGPTVTAGLPLPKAYIQENLELVEKGFSNLKKQIENARMFGIPVVVAVNAFKTDTESELDLISRLSREHGAFDAVKCTHWAEGGKGALALAQAVQRAAQAPSSFQLLYDLKLPVEDKIRIIAQKIYGADDIELLPEAQHKAEVYTKQGFGNLPICMAKTHLSLSHNPEQKGVPTGFILPIRDIRASVGAGFLYPLVGTMSTMPGLPTRPCFYDIDLDPETEQVNGLF
binding: binds
